For one sequence, binding signal results are on record in paper PMC5996148.

What all share (experiment): protein microarray (ProtoArray v5.0), streptavidin-Alexa Fluor 647
What all share (details): 3'-biotin; 20 mM Tris (pH 7.5), 5 mM MgCl2, 100 mM KCl, 0.1% Tween-20, A/T-rich and random oligonucleotide blockers; temperature not stated; high values mean tight binding

The test system of assay [1] is PPP2R2C (human).
In assay [2] the test system is PPP3R2 (human).
Assay [3] has as its target T1, PPT1 (UniProt P50897).
T1 sequence: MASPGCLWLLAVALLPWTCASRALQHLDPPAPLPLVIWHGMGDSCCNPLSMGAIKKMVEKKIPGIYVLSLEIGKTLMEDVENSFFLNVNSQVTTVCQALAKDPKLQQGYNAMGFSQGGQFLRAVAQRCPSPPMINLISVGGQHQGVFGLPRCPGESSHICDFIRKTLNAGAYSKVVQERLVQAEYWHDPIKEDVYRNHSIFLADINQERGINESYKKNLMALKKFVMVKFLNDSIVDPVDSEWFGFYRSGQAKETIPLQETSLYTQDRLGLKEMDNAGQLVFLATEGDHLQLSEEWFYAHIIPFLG

Assay [4] concerns PPT2 (human).
The subject of assay [5] is PRCP (human).
The subject of assay [6] is PRDX2 (human).
Assay [7] relates to PRDX3 (human).
Assay [8] deals with PRELI domain-containing protein 2 (human).
The subject of assay [9] is PRELID1 (human).
In assay [10] the test system is PRKACB (human).

This is one part of the list. For some of these results: The source does not settle which construct or isoform was used.

Consider “GGTGACAGGGGTATGGGGAGGGG [G4-2 biotinylated (Ct1)]”, for which the binding signal is -0.377 z-score in assay [1]; -0.377 z-score in assay [2]; -0.381 z-score in [3]; -0.387 z-score in assay [4]; -0.377 z-score in assay [5]; -0.399 z-score in assay [6]. Moreover, the binding signal in [7] is -0.395 z-score; in assay [8] it was -0.385 z-score; in assay [9], -0.378 z-score; in assay [10], -0.378 z-score.
